{
  "source": "patent US7884070B2",
  "about": "“Linear cationic peptides having antibacterial and/or antifungal properties” (priority 2002, dated 2011)",
  "test_system": "bacteria",
  "assay": "Activity of the peptides against the bacteria of Table 1 (MIC/MBC overall)",
  "type": "cell-based",
  "note": "Not every detail of the peptide structures is certain; ends, links or a residue may be inferred. Where a SMILES comes first, the peptide text is derived from it.",
  "data": [
    {"smiles": "CC(C)C[C@H](NC(=O)[C@H](CCCCN)NC(=O)CNC(=O)[C@H](CCCCN)NC(=O)[C@H](CCCCN)NC(=O)[C@H](CCCCN)NC(=O)[C@H](CCCNC(=N)N)NC(=O)[C@H](CCCCN)NC(=O)CNC(=O)[C@H](CCCCN)NC(=O)[C@H](C)NC(=O)[C@H](CC(C)C)NC(=O)[C@H](CCCCN)NC(=O)[C@H](C)NC(=O)[C@H](CC(C)C)NC(=O)[C@H](CCCCN)NC(=O)[C@H](CCCCN)NC(=O)[C@H](C)NC(=O)[C@H](CC(C)C)NC(=O)[C@H](CCCCN)NC(=O)[C@H](C)NC(=O)[C@H](CC(C)C)NC(=O)[C@@H](N)CCCCN)C(=O)NCC(=O)N[C@@H](CCCCN)C(=O)N[C@@H](CCCCN)C(=O)N[C@@H](CCCNC(=N)N)C(=O)N[C@@H](CC(=O)O)C(=O)N1CCC[C@H]1C(=O)O", "note": "[Peptide 3] (H-KLAKLAKKLAKLAKGKRKKKGKLGKKRDP-OH; N-terminus and C-terminus assumed)", "values": [
      {"measurement": "activity against the bacteria", "value": "not active"}
    ]}
  ]
}
